Results are given in words; binding and its absence hold for the method and conditions named.
Target: T1, bovine bone osteonectin (bovine) (UniProt P13213)
T1 sequence (looked up): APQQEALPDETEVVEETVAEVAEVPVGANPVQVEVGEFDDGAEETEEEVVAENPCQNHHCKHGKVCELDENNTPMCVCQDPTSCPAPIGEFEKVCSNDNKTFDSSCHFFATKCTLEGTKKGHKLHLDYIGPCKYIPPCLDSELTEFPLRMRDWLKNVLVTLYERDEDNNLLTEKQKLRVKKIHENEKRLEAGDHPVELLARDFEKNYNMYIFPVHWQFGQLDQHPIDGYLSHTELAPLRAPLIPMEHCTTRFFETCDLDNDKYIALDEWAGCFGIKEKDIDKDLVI
Assay: condition: 100 nM plasminogen (S741C), 2 µM bone osteonectin; TIRFS, osteonectin on a well coated with collagen type V

Protein sequences, listed by entry. Tags and fused reporters are not part of them. Lines headed by an entry give the natural chain unless they say otherwise; changes in a name come on top.
UniProt P00747: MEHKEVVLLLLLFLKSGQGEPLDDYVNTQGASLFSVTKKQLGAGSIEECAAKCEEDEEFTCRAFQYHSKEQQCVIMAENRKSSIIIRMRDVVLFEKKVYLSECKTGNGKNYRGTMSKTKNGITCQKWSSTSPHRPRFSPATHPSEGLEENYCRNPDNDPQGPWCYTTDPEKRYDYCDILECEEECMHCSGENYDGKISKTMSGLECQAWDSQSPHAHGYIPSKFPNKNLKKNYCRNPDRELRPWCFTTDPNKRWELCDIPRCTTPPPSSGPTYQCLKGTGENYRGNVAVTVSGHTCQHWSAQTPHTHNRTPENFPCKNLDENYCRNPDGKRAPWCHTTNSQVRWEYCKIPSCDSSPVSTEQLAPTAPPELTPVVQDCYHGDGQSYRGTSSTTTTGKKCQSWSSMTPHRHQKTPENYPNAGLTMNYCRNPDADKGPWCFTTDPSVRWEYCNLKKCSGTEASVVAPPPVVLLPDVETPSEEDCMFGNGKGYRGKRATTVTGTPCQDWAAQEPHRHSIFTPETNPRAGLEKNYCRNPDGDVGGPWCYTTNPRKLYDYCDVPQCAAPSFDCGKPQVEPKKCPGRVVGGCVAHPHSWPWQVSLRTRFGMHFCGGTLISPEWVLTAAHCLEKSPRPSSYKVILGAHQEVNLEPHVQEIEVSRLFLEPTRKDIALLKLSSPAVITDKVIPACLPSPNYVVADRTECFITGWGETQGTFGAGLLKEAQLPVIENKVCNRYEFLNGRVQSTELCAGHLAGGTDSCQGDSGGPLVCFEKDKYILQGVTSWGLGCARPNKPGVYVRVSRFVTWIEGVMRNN

## recombinant plasminogen (S741C), fluorescein labeled (from UniProt P00747)
  binding: no binding
